Source: patent US8785423B2, “Compositions and methods of inducing endoplasmic reticulum stress response for the treatment of cell proliferative diseases” (University of Maryland, Baltimore, priority 2008, dated 2014)

Tested on: PC-3 cells
Test: Microarray global gene expression (GeneChip Human Genome Focus Array, DAVID ontologies)
Assay type: cell-based
Details: PC-3, 20 μM, 24 hrs
Method: To perform the microarray experiments, PC-3 cells were treated with (95% ethanol) or 20 μM of VN/124-1. After 24 hr exposure to the agent, cells were pelleted and lysed using Qiagen RLT (Qiagen Inc.; Valencia, Calif.) buffer containing 1% β-mercaptoethanol. Total RNA was isolated using the Qiagen RNeasy-Mini Kit following manufacturer's protocol. Quantity and purity were assessed by absorption at 260 nm and 280 nm. RNA integrity was assessed using an Agilent Bioanalyzer (Agilent Technologies; Santa Clara, Calif.). Experiments were carried out in duplicate, with triplicate samples (dosed independently on 3 different days) from each experiment pooled for analysis on a single chip.
Samples were hybridized to a GeneChip® Human Genome Focus Array (Affymetrix Inc., U.S.A.) and analyzed using an Affymetrix Genechip Scanner 3000 according to manufacturer's protocol. Gene ontologies were identified using the online Database for Annotation, Visualization, and integrated Discovery (DAVID) provided by the National Institute of Allergy and Infectious Diseases and the National Institute of Health. […] Stringent criteria of a minimum EASE/P-Value threshold of 0.001 and a gene count threshold of 5 were used to identify altered gene ontologies.

## C[C@]12CC[C@H](O)CC1=CC[C@@H]1[C@@H]2CC[C@]2(C)C(n3cnc4ccccc43)=CC[C@@H]12 [VN/124-1]
  %, down-regulated ontology Biopolymer Metabolism: 55.10%
  %, down-regulated ontology Cell Cycle: 32.65%
  %, down-regulated ontology DNA Metabolism: 38.78%
  %, down-regulated ontology DNA Replication: 34.69%
  %, down-regulated ontology DNA-Dependent DNA Replication: 20.41%
  %, down-regulated ontology Macromolecule Metabolism: 57.14%
  %, down-regulated ontology Nucleobase, Nucleoside, Nucleotide and Nucleic Acid Metabolism: 48.98%
  %, down-regulated ontology Regulation of Cell Cycle: 20.41%
  %, down-regulated ontology Regulation of Progression Through Cell Cycle: 20.41%
  %, down-regulated ontology Second-Messenger-Mediated Signaling: 12.24%
  %, up-regulated ontology Amine Metabolism: 13.64%
  %, up-regulated ontology Amino Acid Metabolism: 12.12%
  %, up-regulated ontology Amino Acid and Derivative Metabolism: 12.12%
  %, up-regulated ontology Carboxylic Acid Metabolism: 13.64%
  %, up-regulated ontology Development: 27.27%
  %, up-regulated ontology Negative Regulation of Biological Process: 18.18%
  %, up-regulated ontology Negative Regulation of Cellular Process: 16.67%
  %, up-regulated ontology Nitrogen Compound Metabolism: 13.64%
  %, up-regulated ontology Organic Acid Metabolism: 13.64%
  %, up-regulated ontology Response to External Stimulus: 13.64%
  %, up-regulated ontology Response to Stress: 24.24%
  Count, down-regulated ontology Biopolymer Metabolism: 27
  Count, down-regulated ontology Cell Cycle: 16
  Count, down-regulated ontology DNA Metabolism: 19
  Count, down-regulated ontology DNA Replication: 17
  Count, down-regulated ontology DNA-Dependent DNA Replication: 10
  Count, down-regulated ontology Macromolecule Metabolism: 28
  Count, down-regulated ontology Nucleobase, Nucleoside, Nucleotide and Nucleic Acid Metabolism: 24
  Count, down-regulated ontology Regulation of Cell Cycle: 10
  Count, down-regulated ontology Regulation of Progression Through Cell Cycle: 10
  Count, down-regulated ontology Second-Messenger-Mediated Signaling: 6
  Count, up-regulated ontology Amine Metabolism: 9
  Count, up-regulated ontology Amino Acid Metabolism: 8
  Count, up-regulated ontology Amino Acid and Derivative Metabolism: 8
  Count, up-regulated ontology Carboxylic Acid Metabolism: 9
  Count, up-regulated ontology Development: 18
  Count, up-regulated ontology Negative Regulation of Biological Process: 12
  Count, up-regulated ontology Negative Regulation of Cellular Process: 11
  Count, up-regulated ontology Nitrogen Compound Metabolism: 9
  Count, up-regulated ontology Organic Acid Metabolism: 9
  Count, up-regulated ontology Response to External Stimulus: 9
  Count, up-regulated ontology Response to Stress: 16
